The assay addresses T1, PFV-Gag-NtD V14S/V18S/L21S (Prototypic foamy virus (PFV)) (UniProt P14349).
T1 sequence: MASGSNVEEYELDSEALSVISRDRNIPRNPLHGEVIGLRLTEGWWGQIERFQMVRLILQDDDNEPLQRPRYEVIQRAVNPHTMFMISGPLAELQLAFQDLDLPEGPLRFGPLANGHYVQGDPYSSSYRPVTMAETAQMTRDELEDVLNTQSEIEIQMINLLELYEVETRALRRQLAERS
The experiment in a line: AUC; sedimentation velocity of 75 µM equimolar mixtures of Gag-NtD and Env peptide, absorbance at 280 nm; bound fraction from the integrated absorbance of the 3S species in C(S); both purified.

In PMC3649970, “A Unique Spumavirus Gag N-terminal Domain with Functional Properties of Orthoretroviral Matrix and Capsid” (PLoS Pathogens, 2013) one finds binding data, which are given here for 1 molecule.

Results are given in words; binding and its absence hold for the method and conditions named.

B1: PFV Env leader peptide residues 1-20 (peptide, UniProt P14351 1-20, looked up)
peptide: MAPPMTLQQWIIWKKMNKAH
notes: Envelope (Env) protein of Prototypic Foamy Virus, N-terminal leader peptide region, residues 1-20 (Met1 to His20); the text names M1, A2, P3, P4, M5, T6, L7, Q9, W10, W13, M16, A19, H20; also called Env_(1-20); Env(1-20); source: synthetic peptide, bought HPLC purified: Pepceuticals Ltd
With B1, the binding entry is given as “no binding (tested: 75 µM equimolar mixture)”.
